The chains are these.
T1: cellular retinoic acid-binding protein 2 (CRABP2) (human (endogenous in HEK293T)) (UniProt P29373)
T1 sequence: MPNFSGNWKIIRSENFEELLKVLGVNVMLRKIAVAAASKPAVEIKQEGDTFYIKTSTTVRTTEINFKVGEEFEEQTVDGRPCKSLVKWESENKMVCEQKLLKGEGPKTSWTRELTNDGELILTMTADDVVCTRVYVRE

B1: FLAG-Q244AzF-NR2F1 (protein, UniProt P10589 1-423)
chain: MAMVVSSWRDPQDDVAGGNPGGPNPAAQAARGGGGGAGEQQQQAGSGAPHTPQTPGQPGAPATPGTAGDKGQGPPGSGQSQQHIECVVCGDKSSGKHYGQFTCEGCKSFFKRSVRRNLTYTCRANRNCPIDQHHRNQCQYCRLKKCLKVGMRREAVQRGRMPPTQPNPGQYALTNGDPLNGHCYLSGYISLLLRAEPYPTSRYGSQCMQPNNIMGIENICELAARLLFSAVEWARNIPFFPDLFITDQVSLLRLTWSELFVLNAAQCSMPLHVAPLLAAAGLHASPMSADRVVAFMDHIRIFQEQVEKLKALHVDSAEYSCLKAIVLFTSDACGLSDAAHIESLQEKSQCALEEYVRSQYPNQPSRFGKLLLRLPSLRTVSSSVIEQLFFVRLVGKTPIETLIRDMLLSGSSFNWPYMSIQCS
modifications: p-azidophenylalanine (AzF) at position 244

No constants are given. Whether binding was seen depends on the method and setting. In cells and extracts the contact can be indirect. Some binding calls cover weakened binding; strength is not graded here. Where a sequence is shown, tags or fusion partners need not be part of it.

For the assay, the target named is T1, cellular retinoic acid-binding protein 2 (CRABP2) (human (endogenous in HEK293T)). Description: cross-linking.
“FLAG-Q244AzF-NR2F1 with the pathogenic mutation G368D (from UniProt P10589 1-423)”: the binding entry is “binds”.
Next, “FLAG-Q244AzF-NR2F1 with the pathogenic mutation G395A (from UniProt P10589 1-423)”: “binds”; “FLAG-Q244AzF-NR2F1 with the pathogenic mutation E318D (from UniProt P10589 1-423)”: “binds”.
Next, B1: “binds”.

Values taken from publication doi:10.1101/2023.07.24.550340.
